Assay results from paper PMC7376950.
Results are given in words; binding and its absence hold for the method and conditions named. In cells and extracts the contact can be indirect. Some results given as binding are weak or reduced against the parent protein; the word gives no strength. Sequences can lack the tags named with a protein.

Chains of the proteins cited; added tags and fusions are not shown.
UniProt P48432: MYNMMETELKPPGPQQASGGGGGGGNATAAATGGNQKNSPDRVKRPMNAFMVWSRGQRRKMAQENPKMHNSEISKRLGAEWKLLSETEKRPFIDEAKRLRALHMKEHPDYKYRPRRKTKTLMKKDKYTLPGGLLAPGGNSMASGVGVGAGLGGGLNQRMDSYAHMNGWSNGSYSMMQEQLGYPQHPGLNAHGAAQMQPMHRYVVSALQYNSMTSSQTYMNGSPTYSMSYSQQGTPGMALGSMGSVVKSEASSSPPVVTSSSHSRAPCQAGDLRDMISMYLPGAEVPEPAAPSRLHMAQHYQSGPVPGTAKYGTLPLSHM

Biological target: His-tagged Sox2 recombinant protein (mouse) (UniProt P48432)
Experiment: pull-down; His-tagged Sox2 from E. coli held on Ni-NTA beads; equalised 293T lysates with GST-Ddx56 or GST-Ddx56 ΔC-ter added, 4 h at 4 °C; western blot with anti-GST and anti-Sox2; only the target purified

B1: Ddx56-GST (full-length mouse DEAD-box helicase 56, GST-tagged) (protein, UniProt Q9D0R4 1-546)
chain: MEDQEALGFEHMGLDPRLLQAVTDLGWSRPTLIQEKAIPLALEGKDLLARARTGSGKTAAYAIPMLQSLLHKKATGPVMEQAVRGLVLVPTKELARQAQAMIQQLAAYCARDVRVANVSAAEDSASQRAVLMEKPDVVVGTPSRVLSHLQQNTLKLRDSLELLVVDEADLLFSFGFEDELKSLLCHLPRIYQAFLMSATFNEDVQTLKELVLHNPVTLKLQESQLPGPDQLQQFQVVCETEEDKFLLLYALLKLSLIRGKALLFVNTLERGYRLRLFLEQFSIPSCVLNGELPLRSRCHIISQFNQGLYDCVIATDAEILGPQVKGKRRGRGSKGNKASDPESGVARGIDFHHVSAVLNFDLPPTAEAYVHRAGRTARANNPGIVLTFVLPAEQPFLGKIEDLLSGEGEAPILLPYQFQMEEIESFRYRCRDAMRSVTKQAIREARLKEIKEELLHSEKLKTYFEDNPRDLQLLRHDLPLHPAVVKPHLGHVPDYLVPAALRGLVHPRKKRRKVPFSRKAKKVKAQNPLRDFKHRGKKPKPAAKPS
With B1 the binding was “binds”.
